Measurements from PMC11900821.
These are yes or no findings as the source states them, for the method shown. In cells and extracts the contact can be indirect. These calls come from enrichment with a bait or labelling near it, and not all partners need be listed.

The chains behind the UniProt entries cited, without tags or fusion partners.
UniProt P40763: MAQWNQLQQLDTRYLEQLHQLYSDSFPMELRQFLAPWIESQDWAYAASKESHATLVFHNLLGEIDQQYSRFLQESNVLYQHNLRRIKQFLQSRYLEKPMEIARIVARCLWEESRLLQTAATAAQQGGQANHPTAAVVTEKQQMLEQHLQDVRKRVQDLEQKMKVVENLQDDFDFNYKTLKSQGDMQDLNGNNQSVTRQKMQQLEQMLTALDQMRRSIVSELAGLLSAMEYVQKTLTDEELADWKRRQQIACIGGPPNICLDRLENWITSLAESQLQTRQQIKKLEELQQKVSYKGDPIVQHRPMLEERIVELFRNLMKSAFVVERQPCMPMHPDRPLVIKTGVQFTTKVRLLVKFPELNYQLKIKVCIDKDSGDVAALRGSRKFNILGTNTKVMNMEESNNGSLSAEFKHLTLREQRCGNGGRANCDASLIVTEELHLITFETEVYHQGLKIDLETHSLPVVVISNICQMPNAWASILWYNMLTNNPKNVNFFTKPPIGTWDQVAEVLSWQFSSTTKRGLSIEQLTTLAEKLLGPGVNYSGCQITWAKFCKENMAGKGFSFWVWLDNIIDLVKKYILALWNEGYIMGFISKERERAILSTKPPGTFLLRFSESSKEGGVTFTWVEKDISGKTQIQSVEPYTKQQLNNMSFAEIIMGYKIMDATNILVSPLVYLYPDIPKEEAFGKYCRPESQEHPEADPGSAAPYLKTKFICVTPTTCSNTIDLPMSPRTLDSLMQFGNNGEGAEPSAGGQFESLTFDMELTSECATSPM

Biological target: wild-type (WT) STAT3, Flag-tagged and HA-tagged (human) (UniProt P40763)
Test: affinity purification with mass spectrometry; enrichment of FLAG-tagged STAT3 protein, followed by LC-MS analysis of interacting proteins

B1: DIRAS2 (protein, UniProt Q96HU8 1-199)
chain: MPEQSNDYRVAVFGAGGVGKSSLVLRFVKGTFRESYIPTVEDTYRQVISCDKSICTLQITDTTGSHQFPAMQRLSISKGHAFILVYSITSRQSLEELKPIYEQICEIKGDVESIPIMLVGNKCDESPSREVQSSEAEALARTWKCAFMETSAKLNHNVKELFQELLNLEKRRTVSLQIDGKKSKQQKRKEKLKGKCVIM
- binding: binds
